In the supplement of paper PMC12823440, “Inhibitors supercharge kinase turnover through native proteolytic circuits” (Nature, 2025):
Where a name gives a salt, the structure may show the parent alone. This is one part of the list. The calls rarely recur for the same compound in another form.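 Kinases were expressed as nanoluciferase fusions in K562 cells and luminescence was read every 4 h between 2 and 18 h as percent of control, DMSO set to 100% and a positive control to 0%. A time point counts as decreased when the signal drops significantly (2 sigma). The hit call is the authors' own, does not follow from the count of time points alone, and its rule is not shown.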

By UniProt entry, the sequences of proteins in these tests, tags left out.
UniProt Q9Y463, whole entry, looked up: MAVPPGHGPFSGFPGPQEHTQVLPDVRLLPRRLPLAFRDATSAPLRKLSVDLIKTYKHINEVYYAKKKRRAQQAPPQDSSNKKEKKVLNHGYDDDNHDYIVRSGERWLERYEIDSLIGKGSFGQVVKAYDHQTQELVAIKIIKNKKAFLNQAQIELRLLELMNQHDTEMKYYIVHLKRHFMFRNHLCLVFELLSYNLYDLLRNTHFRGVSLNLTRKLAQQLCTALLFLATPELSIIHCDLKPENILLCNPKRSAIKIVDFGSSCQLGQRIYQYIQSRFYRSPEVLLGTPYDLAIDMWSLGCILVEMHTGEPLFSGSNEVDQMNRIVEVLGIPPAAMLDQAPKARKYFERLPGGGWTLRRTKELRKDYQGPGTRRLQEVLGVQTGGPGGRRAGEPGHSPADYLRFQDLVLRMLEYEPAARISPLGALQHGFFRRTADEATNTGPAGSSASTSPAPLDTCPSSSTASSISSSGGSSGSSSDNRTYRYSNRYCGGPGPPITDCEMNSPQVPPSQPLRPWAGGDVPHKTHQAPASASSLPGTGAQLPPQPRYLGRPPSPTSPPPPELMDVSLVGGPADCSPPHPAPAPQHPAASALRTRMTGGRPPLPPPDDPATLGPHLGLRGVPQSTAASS

Target: DYRK1B (UniProt Q9Y463)
Experiment: kinase-Nluc reporter destabilization hit call (1 = scored as downregulated) (binary); higher = compound decreases kinase abundance
Conditions: 10 µM; K562; 2-18 h

kinase-Nluc reporter destabilization hit call, inactive:
CCS(=O)(=O)N1CCN(c2ccc(Nc3ncc(C(N)=O)c(NC4CC4)n3)cc2)CC1 [Cerdulatinib (hydrochloride)] 0, C[C@@H](N)c1ccc(C(=O)Nc2ccnc3[nH]ccc23)cc1 0, COc1ncc(F)cc1CNc1ccc(Cc2c[nH]c3ncc(C)cc23)c(F)n1 0, CCS(=O)(=O)N1CC(CC#N)(n2cc(-c3ncnc4[nH]ccc34)cn2)C1 [Baricitinib (phosphate)] 0, COC(=O)[C@H](CC(C)C)NC(=O)c1ccc(NC[C@@H](N)CS)cc1-c1cccc2ccccc12 [GGTI298 (Trifluoroacetate)] 0, COCCOc1cc(F)c2c(Nc3ccc(NC(=O)Cn4cc(C(C)C)nn4)cc3)ncnc2c1 [AZD3229 Tosylate] 0, CC(C)(C)n1nc(-c2cccc3ccccc23)c2c(N)ncnc21 [1-Naphthyl PP1] 0, N#CCNC(=O)c1ccc(-c2ccnc(Nc3ccc(N4CCOCC4)cc3)n2)cc1 [Momelotinib sulfate] 0, Cn1ncc(Cl)c1-c1cc(C(=O)N[C@H](CN)Cc2cccc(F)c2)sc1Cl [Afuresertib] 0, CNC(=O)c1ccc(Nc2ncc(C(F)(F)F)c(NCc3nccnc3N(C)S(C)(=O)=O)n2)cc1 [Defactinib] 0, O=C(O)c1ccc2c(c1)nc(Nc1cccc(Cl)c1)c1ccncc12 [Silmitasertib] 0, O=C(Nc1cnn2ccc(N3CCC[C@@H]3c3cc(F)ccc3F)nc12)N1CC[C@H](O)C1 [Larotrectinib] 0, COc1cc2nccc(Oc3ccc(NC(=O)C4(C(=O)Nc5ccc(F)cc5)CC4)cc3)c2cc1OC [Cabozantinib (S-malate)] 0, CN(C)C(=N)NC(=N)N [Metformin (hydrochloride)] 0, COc1ccnc(C[S+]([O-])c2nc3cc(-n4cccc4)ccc3[nH]2)c1C (stereo unspecified) [Ilaprazole (sodium)] 0, C#Cc1cccc(Nc2ncnc3cc4c(cc23)OCCOCCOCCO4)c1 [Icotinib (Hydrochloride)] 0, CC(C)NC[C@@H](C(=O)N1CCN(c2ncnc3c2[C@H](C)C[C@H]3O)CC1)c1ccc(Cl)cc1 [Ipatasertib] 0, CC(=O)c1c(C)c2cnc(Nc3ccc(N4CCNCC4)cn3)nc2n(C2CCCC2)c1=O [Palbociclib (monohydrochloride)] 0, C#Cc1cccc(Nc2ncnc3cc(OCCOC)c(OCCOC)cc23)c1 [Erlotinib] 0, OCCn1cc(-c2cnc3nnn(Cc4ccc5ncccc5c4)c3n2)cn1 0, CCN(CC)CC(=O)Nc1c(C)cccc1C [Lidocaine] 0, CCS(=O)(=O)N1CCN(c2ccc(Nc3ncc(C(N)=O)c(NC4CC4)n3)cc2)CC1 [Cerdulatinib] 0, C#Cc1cccc(Nc2ncnc3cc(OCCOC)c(OCCOC)cc23)c1 [Erlotinib (Hydrochloride)] 0, O=C(c1ccc(F)c(F)c1Nc1ccc(I)cc1F)N1CC(O)([C@@H]2CCCCN2)C1 [Cobimetinib] 0, CC(C)(C)n1nc(-c2cccc3ccccc23)c2c(N)ncnc21 [1-Naphthyl PP1 (hydrochloride)] 0, CC(=O)c1c(C)c2cnc(Nc3ccc(N4CCNCC4)cn3)nc2n(C2CCCC2)c1=O [Palbociclib (isethionate)] 0
